According to paper PMC4150058:
Results are given in words; binding and its absence hold for the method and conditions named. In cells and extracts the contact can be indirect. Some results given as binding are weak or reduced against the parent protein; the word gives no strength.

Protein sequences, listed by entry. Tags and fused reporters are not part of them.
UniProt Q8N668: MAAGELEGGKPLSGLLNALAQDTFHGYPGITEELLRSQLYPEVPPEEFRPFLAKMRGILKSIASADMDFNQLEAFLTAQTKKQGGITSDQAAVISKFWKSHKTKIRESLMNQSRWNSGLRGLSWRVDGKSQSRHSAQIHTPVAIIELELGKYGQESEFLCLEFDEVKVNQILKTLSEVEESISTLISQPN
UniProt Q09472: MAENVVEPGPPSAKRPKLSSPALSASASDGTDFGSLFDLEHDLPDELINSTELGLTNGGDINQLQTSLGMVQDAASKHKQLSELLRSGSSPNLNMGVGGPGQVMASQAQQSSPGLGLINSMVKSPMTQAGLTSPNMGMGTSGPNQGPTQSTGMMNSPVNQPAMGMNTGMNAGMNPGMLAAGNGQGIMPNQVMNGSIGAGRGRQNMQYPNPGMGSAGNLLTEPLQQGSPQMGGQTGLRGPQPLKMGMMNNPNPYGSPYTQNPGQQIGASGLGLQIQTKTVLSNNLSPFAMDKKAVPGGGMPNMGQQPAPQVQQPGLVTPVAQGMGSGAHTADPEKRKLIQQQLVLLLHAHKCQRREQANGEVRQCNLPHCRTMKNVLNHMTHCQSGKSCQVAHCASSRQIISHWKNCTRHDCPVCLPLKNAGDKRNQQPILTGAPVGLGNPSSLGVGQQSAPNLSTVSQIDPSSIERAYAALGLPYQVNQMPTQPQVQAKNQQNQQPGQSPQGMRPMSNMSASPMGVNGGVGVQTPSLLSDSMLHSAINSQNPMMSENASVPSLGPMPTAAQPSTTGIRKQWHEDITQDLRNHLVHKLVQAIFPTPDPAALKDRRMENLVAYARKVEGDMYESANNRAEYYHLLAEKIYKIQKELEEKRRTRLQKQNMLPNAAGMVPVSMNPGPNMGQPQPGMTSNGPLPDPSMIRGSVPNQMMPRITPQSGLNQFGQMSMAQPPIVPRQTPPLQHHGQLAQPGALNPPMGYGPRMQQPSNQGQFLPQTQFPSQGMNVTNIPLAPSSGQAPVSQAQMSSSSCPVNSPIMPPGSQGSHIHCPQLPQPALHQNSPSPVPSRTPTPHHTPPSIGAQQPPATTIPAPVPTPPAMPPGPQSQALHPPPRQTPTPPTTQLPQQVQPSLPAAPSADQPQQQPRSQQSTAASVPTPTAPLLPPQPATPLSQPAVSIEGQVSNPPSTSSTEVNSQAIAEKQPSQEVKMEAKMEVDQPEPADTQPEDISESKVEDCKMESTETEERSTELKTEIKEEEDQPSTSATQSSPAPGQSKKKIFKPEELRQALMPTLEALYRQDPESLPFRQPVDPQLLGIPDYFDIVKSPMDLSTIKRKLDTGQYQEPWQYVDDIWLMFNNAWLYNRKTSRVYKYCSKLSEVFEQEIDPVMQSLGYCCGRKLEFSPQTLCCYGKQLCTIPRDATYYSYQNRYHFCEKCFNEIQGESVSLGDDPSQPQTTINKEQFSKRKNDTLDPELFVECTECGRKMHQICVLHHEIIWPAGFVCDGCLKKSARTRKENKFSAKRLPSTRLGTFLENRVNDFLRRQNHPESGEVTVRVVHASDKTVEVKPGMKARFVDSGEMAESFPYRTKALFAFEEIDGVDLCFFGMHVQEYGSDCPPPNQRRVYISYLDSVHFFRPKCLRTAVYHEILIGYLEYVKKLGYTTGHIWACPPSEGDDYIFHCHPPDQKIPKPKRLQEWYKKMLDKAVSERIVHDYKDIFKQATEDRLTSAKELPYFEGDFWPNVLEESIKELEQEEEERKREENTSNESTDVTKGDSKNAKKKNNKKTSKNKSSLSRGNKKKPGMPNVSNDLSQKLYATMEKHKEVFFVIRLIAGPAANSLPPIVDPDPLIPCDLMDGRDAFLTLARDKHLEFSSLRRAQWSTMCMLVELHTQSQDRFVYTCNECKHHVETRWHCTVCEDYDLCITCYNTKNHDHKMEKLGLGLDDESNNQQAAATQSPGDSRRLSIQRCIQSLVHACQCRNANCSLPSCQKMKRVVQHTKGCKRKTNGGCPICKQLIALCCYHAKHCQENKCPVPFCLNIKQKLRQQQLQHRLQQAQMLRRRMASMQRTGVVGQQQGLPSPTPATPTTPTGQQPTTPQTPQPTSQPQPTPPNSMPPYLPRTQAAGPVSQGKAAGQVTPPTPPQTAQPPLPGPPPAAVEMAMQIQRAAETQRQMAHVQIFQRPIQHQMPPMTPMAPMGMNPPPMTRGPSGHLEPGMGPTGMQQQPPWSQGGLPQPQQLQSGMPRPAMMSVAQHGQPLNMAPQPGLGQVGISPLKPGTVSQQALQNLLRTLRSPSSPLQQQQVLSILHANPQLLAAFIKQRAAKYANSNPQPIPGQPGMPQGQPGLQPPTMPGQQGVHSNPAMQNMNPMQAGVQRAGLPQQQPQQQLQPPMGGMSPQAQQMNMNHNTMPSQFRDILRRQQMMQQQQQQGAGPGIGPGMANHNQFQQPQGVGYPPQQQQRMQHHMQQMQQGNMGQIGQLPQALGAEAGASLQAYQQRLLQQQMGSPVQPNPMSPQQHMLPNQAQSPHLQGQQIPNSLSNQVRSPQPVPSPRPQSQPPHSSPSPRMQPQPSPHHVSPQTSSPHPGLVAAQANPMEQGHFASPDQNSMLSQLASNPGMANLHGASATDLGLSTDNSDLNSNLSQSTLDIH

Target: GST–COMMD1 (UniProt Q8N668)
Test: pull-down; SW480 cells transfected with GST–COMMD1 (alone or with control or XIAP siRNA), treated with aspirin (10 mM, indicated times) or TNF (10 ng/µl, 2 h); GST-tagged protein isolated from whole-cell lysates on glutathione–agarose; western blot for p300 or RelA

p300 (from UniProt Q09472 1-2414) (enzyme)
binding: binds
